Tested on: Human airway smooth muscle (HASM) cells
Format: cell-based

## COc1ccc(CC(C)NCC(O)c2ccc(O)c(NC=O)c2)cc1 (stereo not shown) [Formoterol]
  effect on carbachol-induced increase in intracellular Ca++: antagonized the carbachol-induced increase in intracellular Ca^++
